Laboratory results from paper PMC11222469.
Results are given in words; binding and its absence hold for the method and conditions named. Binding seen in cells or lysates may run through a third protein. Some results given as binding are weak or reduced against the parent protein; the word gives no strength. For part of these data: Where a sequence is shown, tags or fusion partners need not be part of it.

Key:
FLAG-SMC1A-WT (human) = FLAG-SMC1A-WT (human) (UniProt Q14683); assay: co-IP; interaction of SMC1A or CDCA5 mutants with DCAF15 and RAD21 (Supplementary Fig. 3f, 3g, 4e); cells and legends not shown
[1] = molecular target: SMC1A (human (endogenous in HEK293T, MV4-11, HEL, HEK293)) (UniProt Q14683); assay: co-IP; alpha-SMC1A antibody (1-10 ug per IP) overnight at 4 C, Protein-G beads, NP-40 buffer; lysates of Cas9+ HEL cells with ROSA26- or DCAF15-targeting sgRNAs; also with cycloheximide, MG132, MLN4924, indisulam or PCI-34051; Western blot
[2] = molecular target: SMC1A (human (endogenous in HEK293T, MV4-11, HEL, HEK293)) (UniProt Q14683); assay: co-IP; alpha-SMC1A antibody; lysates of HEK293 FLAG-HA-dTAG-DCAF15[Clone#1] cells, asynchronous or synchronized in G1/S, G2 or prometaphase, DMSO or dTAG-13 (100 nM) for final 6 h; Western blot

Row | Binder | binding (FLAG-SMC1A-WT (human)) | binding [1] | binding [2]
1 | RAD21 (protein, UniProt O60216 1-631) MFYAHFVLSKRGPLAKIWLAAHWDKKLTKAHVFECNLESSVESIISPKVKMALRTSGHLLLGVVRIYHRKAKYLLADCNEAFIKIKMAFRPGVVDLPEENREAAYNAITLPEEFHDFDQPLPDLDDIDVAQQFSLNQSRVEEITMREEVGNISILQENDFGDFGMDDREIMREGSAFEDDDMLVSTTTSNLLLESEQSTSNLNEKINHLEYEDQYKDDNFGEGNDGGILDDKLISNNDGGIFDDPPALSEAGVMLPEQPAHDDMDEDDNVSMGGPDSPDSVDPVEPMPTMTDQTTLVPNEEEAFALEPIDITVKETKAKRKRKLIVDSVKELDSKTIRAQLSDYSDIVTTLDLAPPTKKLMMWKETGGVEKLFSLPAQPLWNNRLLKLFTRCLTPLVPEDLRKRRKGGEADNLDEFLKEFENPEVPREDQQQQHQQRDVIDEPIIEEPSRLQESVMEASRTNIDESAMPPPPPQGVKRKAGQIDPEPVMPPQQVEQMEIPPVELPPEEPPNICQLIPELELLPEKEKEKEKEKEDDEEEEDEDASGGDQDQEERRWNKRTQQMLHGLQRALAKTGAESISLLELCRNTNRKQAAAKFYSFLVLKKQQAIELTQEEPYSDIIATPGPRFHII | binds | binds | 
2 | PDS5A (protein, UniProt Q29RF7 1-1337) MDFTAQPKPATALCGVVSADGKIAYPPGVKEITDKITTDEMIKRLKMVVKTFMDMDQDSEDEKQQYLPLALHLASEFFLRNPNKDVRLLVACCLADIFRIYAPEAPYTSHDKLKDIFLFITRQLKGLEDTKSPQFNRYFYLLENLAWVKSYNICFELEDCNEIFIQLFRTLFSVINNSHNKKVQMHMLDLMSSIIMEGDGVTQELLDSILINLIPAHKNLNKQSFDLAKVLLKRTVQTIEACIANFFNQVLVLGRSSVSDLSEHVFDLIQELFAIDPHLLLSVMPQLEFKLKSNDGEERLAVVRLLAKLFGSKDSDLATQNRPLWQCFLGRFNDIHVPVRLESVKFASHCLMNHPDLAKDLTEYLKVRSHDPEEAIRHDVIVTIITAAKRDLALVNDQLLGFVRERTLDKRWRVRKEAMMGLAQLYKKYCLHGEAGKEAAEKVSWIKDKLLHIYYQNSIDDKLLVEKIFAQYLVPHNLETEERMKCLYYLYASLDPNAVKALNEMWKCQNMLRSHVRELLDLHKQPTSEANCSAMFGKLMTIAKNLPDPGKAQDFVKKFNQVLGDDEKLRSQLELLISPTCSCKQADICVREIARKLANPKQPTNPFLEMVKFLLERIAPVHIDSEAISALVKLMNKSIEGTADDEEEGVSPDTAIRSGLELLKVLSFTHPTSFHSAETYESLLQCLRMEDDKVAEAAIQIFRNTGHKIETDLPQIRSTLIPILHQKAKRGTPHQAKQAVHCIHAIFTNKEVQLAQIFEPLSRSLNADVPEQLITPLVSLGHISMLAPDQFASPMKSVVANFIVKDLLMNDRSTGEKNGKLWSPDEEVSPEVLAKVQAIKLLVRWLLGMKNNQSKSANSTLRLLSAMLVSEGDLTEQKRISKSDMSRLRLAAGSAIMKLAQEPCYHEIITPEQFQLCALVINDECYQVRQIFAQKLHKALVKLLLPLEYMAIFALCAKDPVKERRAHARQCLLKNISIRREYIKQNPMATEKLLSLLPEYVVPYMIHLLAHDPDFTRSQDVDQLRDIKECLWFMLEVLMTKNENNSHAFMKKMAENIKLTRDAQSPDESKTNEKLYTVCDVALCVINSKSALCNADSPKDPVLPMKFFTQPEKDFCNDKSYISEETRVLLLTGKPKPAGVLGAVNKPLSATGRKPYVRSTGTETGSNINVNSELNPSTGNRSREQSSEAAETGVSENEENPVRIISVTPVKNIDPVKNKEINSDQATQGNISSDRGKKRTVTAAGAENIQQKTDEKVDESGPPAPSKPRRGRRPKSESQGNATKNDDLNKPINKGRKRAAVGQESPGGLEAGNAKAPKLQDLAKKAAPAERQIDLQR |  | binds | binds
3 | PDS5B (protein, UniProt Q9NTI5 1-1447) MAHSKTRTNDGKITYPPGVKEISDKISKEEMVRRLKMVVKTFMDMDQDSEEEKELYLNLALHLASDFFLKHPDKDVRLLVACCLADIFRIYAPEAPYTSPDKLKDIFMFITRQLKGLEDTKSPQFNRYFYLLENIAWVKSYNICFELEDSNEIFTQLYRTLFSVINNGHNQKVHMHMVDLMSSIICEGDTVSQELLDTVLVNLVPAHKNLNKQAYDLAKALLKRTAQAIEPYITNFFNQVLMLGKTSISDLSEHVFDLILELYNIDSHLLLSVLPQLEFKLKSNDNEERLQVVKLLAKMFGAKDSELASQNKPLWQCYLGRFNDIHVPIRLECVKFASHCLMNHPDLAKDLTEYLKVRSHDPEEAIRHDVIVSIVTAAKKDILLVNDHLLNFVRERTLDKRWRVRKEAMMGLAQIYKKYALQSAAGKDAAKQIAWIKDKLLHIYYQNSIDDRLLVERIFAQYMVPHNLETTERMKCLYYLYATLDLNAVKALNEMWKCQNLLRHQVKDLLDLIKQPKTDASVKAIFSKVMVITRNLPDPGKAQDFMKKFTQVLEDDEKIRKQLEVLVSPTCSCKQAEGCVREITKKLGNPKQPTNPFLEMIKFLLERIAPVHIDTESISALIKQVNKSIDGTADDEDEGVPTDQAIRAGLELLKVLSFTHPISFHSAETFESLLACLKMDDEKVAEAALQIFKNTGSKIEEDFPHIRSALLPVLHHKSKKGPPRQAKYAIHCIHAIFSSKETQFAQIFEPLHKSLDPSNLEHLITPLVTIGHIALLAPDQFAAPLKSLVATFIVKDLLMNDRLPGKKTTKLWVPDEEVSPETMVKIQAIKMMVRWLLGMKNNHSKSGTSTLRLLTTILHSDGDLTEQGKISKPDMSRLRLAAGSAIVKLAQEPCYHEIITLEQYQLCALAINDECYQVRQVFAQKLHKGLSRLRLPLEYMAICALCAKDPVKERRAHARQCLVKNINVRREYLKQHAAVSEKLLSLLPEYVVPYTIHLLAHDPDYVKVQDIEQLKDVKECLWFVLEILMAKNENNSHAFIRKMVENIKQTKDAQGPDDAKMNEKLYTVCDVAMNIIMSKSTTYSLESPKDPVLPARFFTQPDKNFSNTKNYLPPEMKSFFTPGKPKTTNVLGAVNKPLSSAGKQSQTKSSRMETVSNASSSSNPSSPGRIKGRLDSSEMDHSENEDYTMSSPLPGKKSDKRDDSDLVRSELEKPRGRKKTPVTEQEEKLGMDDLTKLVQEQKPKGSQRSRKRGHTASESDEQQWPEEKRLKEDILENEDEQNSPPKKGKRGRPPKPLGGGTPKEEPTMKTSKKGSKKKSGPPAPEEEEEEERQSGNTEQKSKSKQHRVSRRAQQRAESPESSAIESTQSTPQKGRGRPSKTPSPSQPKKNVRVGRSKQAATKENDSSEEVDVFQGSSPVDDIPQEETEEEEVSTVNVRRRSAKRERR |  | binds | 
4 | WAPL (protein, UniProt Q7Z5K2 1-1190) MTSRFGKTYSRKGGNGSSKFDEVFSNKRTTLSTKWGETTFMAKLGQKRPNFKPDIQEIPKKPKVEEESTGDPFGFDSDDESLPVSSKNLAQVKCSSYSESSEAAQLEEVTSVLEANSKISHVVVEDTVVSDKCFPLEDTLLGKEKSTNRIVEDDASISSCNKLITSDKVENFHEEHEKNSHHIHKNADDSTKKPNAETTVASEIKETNDTWNSQFGKRPESPSEISPIKGSVRTGLFEWDNDFEDIRSEDCILSLDSDPLLEMKDDDFKNRLENLNEAIEEDIVQSVLRPTNCRTYCRANKTKSSQGASNFDKLMDGTSQALAKANSESSKDGLNQAKKGGVSCGTSFRGTVGRTRDYTVLHPSCLSVCNVTIQDTMERSMDEFTASTPADLGEAGRLRKKADIATSKTTTRFRPSNTKSKKDVKLEFFGFEDHETGGDEGGSGSSNYKIKYFGFDDLSESEDDEDDDCQVERKTSKKRTKTAPSPSLQPPPESNDNSQDSQSGTNNAENLDFTEDLPGVPESVKKPINKQGDKSKENTRKIFSGPKRSPTKAVYNARHWNHPDSEELPGPPVVKPQSVTVRLSSKEPNQKDDGVFKAPAPPSKVIKTVTIPTQPYQDIVTALKCRREDKELYTVVQHVKHFNDVVEFGENQEFTDDIEYLLSGLKSTQPLNTRCLSVISLATKCAMPSFRMHLRAHGMVAMVFKTLDDSQHHQNLSLCTAALMYILSRDRLNMDLDRASLDLMIRLLELEQDASSAKLLNEKDMNKIKEKIRRLCETVHNKHLDLENITTGHLAMETLLSLTSKRAGDWFKEELRLLGGLDHIVDKVKECVDHLSRDEDEEKLVASLWGAERCLRVLESVTVHNPENQSYLIAYKDSQLIVSSAKALQHCEELIQQYNRAEDSICLADSKPLPHQNVTNHVGKAVEDCMRAIIGVLLNLTNDNEWGSTKTGEQDGLIGTALNCVLQVPKYLPQEQRFDIRVLGLGLLINLVEYSARNRHCLVNMETSCSFDSSICSGEGDDSLRIGGQVHAVQALVQLFLERERAAQLAESKTDELIKDAPTTQHDKSGEWQETSGEIQWVSTEKTDGTEEKHKKEEEDEELDLNKALQHAGKHMEDCIVASYTALLLGCLCQESPINVTTVREYLPEGDFSIMTEMLKKFLSFMNLTCAVGTTGQKSISRVIEYLEHC |  | binds | 
